In publication PMC7556057:
Results are given in words; binding and its absence hold for the method and conditions named. Binding seen in cells or lysates may run through a third protein. A yes stands for co-enrichment or nearness to the bait. Other partners may have been found. Where a sequence is shown, tags or fusion partners need not be part of it.

By UniProt entry, the sequences of proteins in these tests, tags left out.
UniProt P21796: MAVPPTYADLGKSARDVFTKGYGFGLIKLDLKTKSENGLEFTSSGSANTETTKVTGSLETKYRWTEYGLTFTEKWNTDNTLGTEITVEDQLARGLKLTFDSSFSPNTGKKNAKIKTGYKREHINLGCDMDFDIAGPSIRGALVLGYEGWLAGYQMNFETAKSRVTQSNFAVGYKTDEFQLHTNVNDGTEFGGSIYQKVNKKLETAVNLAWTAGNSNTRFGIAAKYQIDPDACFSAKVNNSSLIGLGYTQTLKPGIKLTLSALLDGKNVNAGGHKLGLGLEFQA

Target: T1, tubulin polymerization-promoting protein family member 3 (TPPP3), FLAG-tagged (UniProt Q9BW30)
T1 sequence: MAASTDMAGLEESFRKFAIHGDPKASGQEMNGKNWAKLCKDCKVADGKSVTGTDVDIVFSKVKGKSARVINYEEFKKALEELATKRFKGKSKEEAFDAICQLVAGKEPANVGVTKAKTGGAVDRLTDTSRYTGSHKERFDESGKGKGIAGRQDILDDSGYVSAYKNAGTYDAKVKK
Assay: affinity purification with mass spectrometry; Co-IP from HUVECs transduced with vector or TPPP3; pelleted Co-IPs analysed by LC-MS/MS

In the case of “voltage-dependent anion channel 1 (VDAC1), endogenous (from UniProt P21796 1-283)”, the binding was “binds”.
